Assay results as given in article PMC11312562.
No constants are given. Whether binding was seen depends on the method and setting. In cells and extracts the contact can be indirect. Binding can be weak; no strength is given.

Biological target: hexahistidyl-tagged ThsB1 (His6-ThsB1) (Staphylococcus aureus 08BA02176)
Experiment: pull-down; cobalt resin on lysates of S. aureus RN4220 expressing His6-tagged ThsB1 or ThsB2 alone, not as a pair, infected with Φ80α-vir (MOI 10) for 20 minutes; Coomassie SDS-PAGE

B1: major head protein (Mhp) of phage Φ80α-vir (protein, UniProt A4ZFB3 15-324)
chain: ASNNVKPQVFNPDNVMMHEKKDGTLMNEFTTPILQEVMENSKIMQLGKYEPMEGTEKKFTFWADKPGAYWVGEGQKIETSKATWVNATMRAFKLGVILPVTKEFLNYTYSQFFEEMKPMIAEAFYKKFDEAGILNQGNNPFGKSIAQSIEKTNKVIKGDFTQDNIIDLEALLEDDELEANAFISKTQNRSLLRKIVDPETKERIYDRNSDSLDGLPVVNLKSSNLKRGELITGDFDKLIYGIPQLIEYKIDETAQLSTVKNEDGTPVNLFEQDMVALRATMHVALHIADDKAFAKLVPADKRTDSVPGEV
**Q.** With B1 as the binder, how does the binding read?
**A.** binds
